Measured values taken from PubChem BioAssay AID662 (National Center for Advancing Translational Sciences (NCATS), 2007).
The list shows a part of the results. Further columns of the screen follow, without active or inactive calls. Compounds called inactive in the main read-out are mostly missing here. Potencies come from curve fits of mixed quality, noted in brackets.

experiment: Cell signaling CRE-BLA (Fsk stim); conditions: CHO CRE-bla reporter (cAMP response element driving beta-lactamase), forskolin EC10, beta-lactamase ratio; measured here: 460 nm blue channel
Outline: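 CRE-bla CHO cells stimulated with EC10 NKH 477 (water-soluble forskolin) and compound titrations, 3 h at 37C; beta-lactamase read with CCF4 after 2 h at room temperature. Activity from 460/530 nm emission ratio, AC50 values for positive or negative modulation.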

Structure (SMILES)	AC50
CC1CCC2C(C1)c1sc(=O)[nH]c1SC2(C)C (stereo not drawn)	10 µM [rising, partial curve]
Cc1ccc(NC(=O)CN2CCC3(O)CCCCC3C2c2ccc3c(c2)OCO3)c(C)c1 (stereo not drawn)	10 µM [rising, partial curve]
CN1CCN(c2ncc3nc(-c4cc(F)cc(F)c4)c(=O)n(CCc4ccccc4)c3n2)CC1	1 µM [rising, full curve]
CCN(CC(=O)Nc1ccc2c(c1)OCCO2)Cc1cc(=O)oc2cc(C)c(C)cc12	12.6 µM [rising, partial curve]
Cc1cc2n(n1)C(c1sccc1C)Nc1ccccc1-2 (stereo not drawn)	10 µM [rising, partial curve]
CCCC(=O)c1ccc(N2CCN(S(=O)(=O)c3ccc(C)cc3)CC2)c(F)c1	3.98 µM [falling, single point]
CCOc1ccccc1Oc1cn[nH]c1-c1ccc(OC)cc1O	25.1 µM [falling, single point]
Cc1ccc(C2C3=C(CC(C)(C)CC3=O)Nc3n[nH]c(C)c32)cc1 (stereo not drawn)	3.16 µM [rising, single point]
CC(C)(C)C(=O)/C=c1\[nH]c(=O)/c(=C\c2ccc(C#N)cc2)s1	15.8 µM [rising, partial curve]
CCCN1CC=C2C(C#N)=C(N)C(C#N)(C#N)C(c3cc(OC)ccc3OC)C2C1 (stereo not drawn)	10 µM [rising, partial curve]
CC1(C)CC(=O)C2=C(C1)OC1=C(C(=O)CC(C)(C)C1)C2c1ccc(O)cc1O	0.0126 µM [falling, partial curve, poor fit]
CN(C)c1nc(-c2cccc(C#N)c2)nc2ccccc12	10 µM [rising, partial curve]
O=C(NCCc1c[nH]c2ccccc12)c1c(Cl)nc2sccn12	7.94 µM [rising, partial curve]
CN(C)c1oc(-c2ccccc2Cl)nc1C#N	25.1 µM [rising, single point]
CCC12CC3CC(C1)CC(C(=O)O)(C3)C2	0.316 µM [rising, partial curve]
CCCCN(c1ccccc1)S(=O)(=O)c1ccc2c(c1)CCN2C(=O)CCC(=O)O	0.316 µM [falling, full curve, poor fit]
COc1cccc(Nc2ncc3nc(C)c(=O)n(CCc4ccccc4)c3n2)c1	6.31 µM [rising, partial curve]
O=C(COC(=O)C1CC1)Nc1ccc(Oc2ccccc2)cc1	3.98 µM [falling, single point]
Cc1n[nH]c(C)c1S(=O)(=O)N1CCCCCC1	0.126 µM [falling, full curve]
Cn1cc(CC(=O)N2CCN(c3ccc(Cl)cc3)CC2)c2ccccc21	0.631 µM [falling, full curve]
Cn1c(=O)cnc2cnc(Nc3ccccc3)nc21	20 µM [rising, single point]
O=C(COC(=O)c1cccs1)NCc1ccco1	12.6 µM [falling, partial curve]
CCOC(=O)c1cn(CC(=O)Nc2ccc(C(C)C)cc2)nn1	25.1 µM [rising, single point]

Among those listed so far, four contain a cyano group:
Structure (SMILES)	AC50
CC(C)(C)C(=O)/C=c1\[nH]c(=O)/c(=C\c2ccc(C#N)cc2)s1	15.8 µM [rising, partial curve]
CCCN1CC=C2C(C#N)=C(N)C(C#N)(C#N)C(c3cc(OC)ccc3OC)C2C1 (stereo not drawn)	10 µM [rising, partial curve]
CN(C)c1nc(-c2cccc(C#N)c2)nc2ccccc12	10 µM [rising, partial curve]
CN(C)c1oc(-c2ccccc2Cl)nc1C#N	25.1 µM [rising, single point]

Going on with the list:

Structure (SMILES)	AC50
CCNc1ncc2nc(-c3cn(C)c4ccccc34)c(=O)n(Cc3ccc(F)cc3)c2n1	12.6 µM [rising, partial curve]
CCC(=O)Nc1ccc(C(=O)Nc2ccc3c(c2)C(=O)N(CC2CCCO2)C3=O)cc1 (stereo not drawn)	25.1 µM [rising, single point]
Cc1ccc2nc(NCCCNC(=O)c3cnccn3)c(C#N)cc2c1	12.6 µM [rising, partial curve]
COc1ccc(-c2nnc(-c3cccs3)o2)cc1OC	12.6 µM [rising, partial curve]
COc1ccc(-c2cc(C(F)(F)F)nc(SCC(=O)N3CCOCC3)n2)cc1OC	0.794 µM [rising, full curve]
CCCc1c(C)c2cc(C)ccc2[nH]c1=O	0.00398 µM [falling, full curve, poor fit]
CCOC(=O)C1CCN(C(=O)c2sc3nc(-c4ccccc4)cn3c2C)CC1	12.6 µM [rising, partial curve]
C/C=C/CSc1nc2c(c(=O)[nH]c(=O)n2C)n1CCC	5.01 µM [rising, partial curve]
COc1ncc2nc(C)c(=O)n(Cc3cccs3)c2n1	12.6 µM [rising, partial curve]
O=C(NCCCN1CCN(CCCNC(=O)c2ccccc2F)CC1)c1ccccc1F	0.251 µM [rising, full curve]
CCOC(=O)c1[nH]c2ccc(OCC)cc2c1NC(=O)CN1CCN(c2ccccn2)CC1	12.6 µM [rising, single point]
CCOC(=O)N1CCN(C(=O)CCn2nc(-c3ccc(Cl)cc3)ccc2=O)CC1	0.0251 µM [falling, partial curve]
CCSc1nnc(NC(=O)CSc2nc3c(c(=O)n2-c2ccccc2)SCC3)s1	3.16 µM [rising, partial curve]
COC(=O)C1(S(=O)(=O)c2cccc3nsnc23)CC1	0.1 µM [falling, single point]
COCCCn1c2nc3ccccc3nc2c2c(=O)n(Cc3ccc(Cl)cc3)cnc21	0.1 µM [falling, partial curve]
COCC(=O)NCCc1nc(-c2ccccc2)cs1	5.01 µM [falling, partial curve, poor fit]
CCC(C)[C@H](NC(=O)NCc1ccccc1)C(=O)O (stereo partly drawn)	0.631 µM [falling, full curve]
O=C(CC1(O)C(=O)Nc2ccccc21)c1ccc2c(c1)OCO2 (stereo not drawn)	0.398 µM [rising, partial curve]
CCn1ncc2c1C(=O)NC1c3ccccc3C(=O)N21 (stereo not drawn)	10 µM [rising, partial curve]
COc1cccc(-c2nnc(N(C)C(=O)c3ccno3)s2)c1	0.02 µM [falling, full curve]
CC[C@H](NC(=O)c1c(C)c(-c2ccccc2)nc2ccccc12)c1ccccc1	7.94 µM [falling, partial curve]
CCOC(=O)N1CCN(C(=O)Nc2ccc3nc(C)c(C)nc3c2)CC1	10 µM [rising, partial curve]
O=C(NCCc1c[nH]c2ccccc12)C1Cc2ccccc2CN1C(=O)c1ccco1 (stereo not drawn)	7.94 µM [falling, partial curve]

Structure (SMILES)	AC50
COc1ccc(C(=O)OCCN2CCOCC2)cc1OC	10 µM [rising, partial curve]
Cc1ccccc1C(=O)Nc1ccc(Br)cn1	0.316 µM [rising, partial curve]
Cc1[nH]nc(N=CC2=C(O)CC(c3ccco3)CC2=O)c1-c1ccccc1 (stereo not drawn)	25.1 µM [rising, single point]
O=C(NCc1cccs1)[C@@H]1CSC2c3ccccc3C(=O)N21 (stereo partly drawn)	2.51 µM [falling, single point]
COc1ccccc1N1C(=O)CC(Nc2ccc(N3CCOCC3)cc2)C1=O (stereo not drawn)	0.00398 µM [falling, full curve, poor fit]
CC(C)Oc1ccc(C2c3c(oc4ccccc4c3=O)C(=O)N2CCCN2CCOCC2)cc1 (stereo not drawn)	0.501 µM [rising, single point]
CCc1c(C)nc(SCC(=O)Nc2ccc(Br)cc2)[nH]c1=O	10 µM [rising, partial curve]
CCCOc1ccc(C(=O)Nc2ccc(N(C)C)cc2)cc1	1.58 µM [falling, partial curve, poor fit]
C=CCNC(=O)C(C#N)c1nc2ccccc2nc1N1CCN(Cc2ccccc2)CC1 (stereo not drawn)	12.6 µM [rising, partial curve]
N#Cc1cccc(-c2ccc3ncnc(NCc4cccs4)c3c2)c1	3.98 µM [rising, single point]
O=C(Nc1ccc(S(=O)(=O)N2CCCC2)cc1Cl)C1=COCCO1	5.01 µM [rising, single point]
O=C(C1=C(O)C(=O)N(Cc2ccco2)C1c1cccnc1)c1cc2ccccc2o1 (stereo not drawn)	10 µM [falling, single point]
Cc1nn(Cc2ccc(Cl)c(Cl)c2)c(C)c1NC(=O)c1cc(C2CC2)on1	10 µM [falling, partial curve]
COc1ccc(Br)cc1CNC(=O)C1CCCN(c2nc3ccccc3o2)C1 (stereo not drawn)	25.1 µM [rising, single point]
Cc1oc(C)c2c(=O)ccc3c(c12)OC(N)=C(C#N)C3c1ccccc1Cl (stereo not drawn)	20 µM [rising, partial curve]
COc1ccccc1-c1cc(Nc2ccn[nH]2)ncn1	15.8 µM [rising, partial curve]
COc1cccc(-c2ccc3ncnc(NCCNC(C)=O)c3c2)c1	6.31 µM [rising, partial curve]
Cc1nc2cnc(Nc3ccccc3)nc2n(CCc2ccccc2)c1=O	15.8 µM [rising, partial curve]
O=C(NCc1ccco1)c1noc2c1CCCCC2	2.51 µM [falling, single point]
CCOC(=O)c1c(C)[nH]c(C(=O)C(C)OC(=O)c2cccc(OCc3c(C)noc3C)c2)c1C (stereo not drawn)	3.98 µM [falling, full curve]
FC(F)(F)c1nnc2ccc(NCn3nnc4ccccc43)nn12	15.8 µM [rising, partial curve]
Cc1cc(C)nc(NC(=NCc2ccc3c(c2)OCO3)NC(=O)Nc2ccccc2)n1	10 µM [rising, partial curve]
